# Values of other authors, collected in patent publication US11318143B2, “Treatment of alcohol use disorder” (priority 2017, dated 2022).
# Some of these results come from one statement about several compounds together.
# Test system: subjects with alcohol use disorder
# Conditions: treatment of AUD, meta-analyses, literature; listed as acamprosate; cited from earlier work
smiles,measurement,value
CC(=O)NCCCS(=O)(=O)O [Acamprosate],effect size (Cohen's D),0.2-0.3
